Reference: the supplement of paper PMC12067093, “Discovery and optimisation of a covalent ligand for TRIM25 and its application to targeted protein ubiquitination” (Chemical Science, 2025)
The other results are listed elsewhere or left out.

Protein sequences, listed by entry. Tags and fused reporters are not part of them. Lines headed by an entry give the natural chain unless they say otherwise; changes in a name come on top.
UniProt Q7Z6Z7, whole entry, looked up: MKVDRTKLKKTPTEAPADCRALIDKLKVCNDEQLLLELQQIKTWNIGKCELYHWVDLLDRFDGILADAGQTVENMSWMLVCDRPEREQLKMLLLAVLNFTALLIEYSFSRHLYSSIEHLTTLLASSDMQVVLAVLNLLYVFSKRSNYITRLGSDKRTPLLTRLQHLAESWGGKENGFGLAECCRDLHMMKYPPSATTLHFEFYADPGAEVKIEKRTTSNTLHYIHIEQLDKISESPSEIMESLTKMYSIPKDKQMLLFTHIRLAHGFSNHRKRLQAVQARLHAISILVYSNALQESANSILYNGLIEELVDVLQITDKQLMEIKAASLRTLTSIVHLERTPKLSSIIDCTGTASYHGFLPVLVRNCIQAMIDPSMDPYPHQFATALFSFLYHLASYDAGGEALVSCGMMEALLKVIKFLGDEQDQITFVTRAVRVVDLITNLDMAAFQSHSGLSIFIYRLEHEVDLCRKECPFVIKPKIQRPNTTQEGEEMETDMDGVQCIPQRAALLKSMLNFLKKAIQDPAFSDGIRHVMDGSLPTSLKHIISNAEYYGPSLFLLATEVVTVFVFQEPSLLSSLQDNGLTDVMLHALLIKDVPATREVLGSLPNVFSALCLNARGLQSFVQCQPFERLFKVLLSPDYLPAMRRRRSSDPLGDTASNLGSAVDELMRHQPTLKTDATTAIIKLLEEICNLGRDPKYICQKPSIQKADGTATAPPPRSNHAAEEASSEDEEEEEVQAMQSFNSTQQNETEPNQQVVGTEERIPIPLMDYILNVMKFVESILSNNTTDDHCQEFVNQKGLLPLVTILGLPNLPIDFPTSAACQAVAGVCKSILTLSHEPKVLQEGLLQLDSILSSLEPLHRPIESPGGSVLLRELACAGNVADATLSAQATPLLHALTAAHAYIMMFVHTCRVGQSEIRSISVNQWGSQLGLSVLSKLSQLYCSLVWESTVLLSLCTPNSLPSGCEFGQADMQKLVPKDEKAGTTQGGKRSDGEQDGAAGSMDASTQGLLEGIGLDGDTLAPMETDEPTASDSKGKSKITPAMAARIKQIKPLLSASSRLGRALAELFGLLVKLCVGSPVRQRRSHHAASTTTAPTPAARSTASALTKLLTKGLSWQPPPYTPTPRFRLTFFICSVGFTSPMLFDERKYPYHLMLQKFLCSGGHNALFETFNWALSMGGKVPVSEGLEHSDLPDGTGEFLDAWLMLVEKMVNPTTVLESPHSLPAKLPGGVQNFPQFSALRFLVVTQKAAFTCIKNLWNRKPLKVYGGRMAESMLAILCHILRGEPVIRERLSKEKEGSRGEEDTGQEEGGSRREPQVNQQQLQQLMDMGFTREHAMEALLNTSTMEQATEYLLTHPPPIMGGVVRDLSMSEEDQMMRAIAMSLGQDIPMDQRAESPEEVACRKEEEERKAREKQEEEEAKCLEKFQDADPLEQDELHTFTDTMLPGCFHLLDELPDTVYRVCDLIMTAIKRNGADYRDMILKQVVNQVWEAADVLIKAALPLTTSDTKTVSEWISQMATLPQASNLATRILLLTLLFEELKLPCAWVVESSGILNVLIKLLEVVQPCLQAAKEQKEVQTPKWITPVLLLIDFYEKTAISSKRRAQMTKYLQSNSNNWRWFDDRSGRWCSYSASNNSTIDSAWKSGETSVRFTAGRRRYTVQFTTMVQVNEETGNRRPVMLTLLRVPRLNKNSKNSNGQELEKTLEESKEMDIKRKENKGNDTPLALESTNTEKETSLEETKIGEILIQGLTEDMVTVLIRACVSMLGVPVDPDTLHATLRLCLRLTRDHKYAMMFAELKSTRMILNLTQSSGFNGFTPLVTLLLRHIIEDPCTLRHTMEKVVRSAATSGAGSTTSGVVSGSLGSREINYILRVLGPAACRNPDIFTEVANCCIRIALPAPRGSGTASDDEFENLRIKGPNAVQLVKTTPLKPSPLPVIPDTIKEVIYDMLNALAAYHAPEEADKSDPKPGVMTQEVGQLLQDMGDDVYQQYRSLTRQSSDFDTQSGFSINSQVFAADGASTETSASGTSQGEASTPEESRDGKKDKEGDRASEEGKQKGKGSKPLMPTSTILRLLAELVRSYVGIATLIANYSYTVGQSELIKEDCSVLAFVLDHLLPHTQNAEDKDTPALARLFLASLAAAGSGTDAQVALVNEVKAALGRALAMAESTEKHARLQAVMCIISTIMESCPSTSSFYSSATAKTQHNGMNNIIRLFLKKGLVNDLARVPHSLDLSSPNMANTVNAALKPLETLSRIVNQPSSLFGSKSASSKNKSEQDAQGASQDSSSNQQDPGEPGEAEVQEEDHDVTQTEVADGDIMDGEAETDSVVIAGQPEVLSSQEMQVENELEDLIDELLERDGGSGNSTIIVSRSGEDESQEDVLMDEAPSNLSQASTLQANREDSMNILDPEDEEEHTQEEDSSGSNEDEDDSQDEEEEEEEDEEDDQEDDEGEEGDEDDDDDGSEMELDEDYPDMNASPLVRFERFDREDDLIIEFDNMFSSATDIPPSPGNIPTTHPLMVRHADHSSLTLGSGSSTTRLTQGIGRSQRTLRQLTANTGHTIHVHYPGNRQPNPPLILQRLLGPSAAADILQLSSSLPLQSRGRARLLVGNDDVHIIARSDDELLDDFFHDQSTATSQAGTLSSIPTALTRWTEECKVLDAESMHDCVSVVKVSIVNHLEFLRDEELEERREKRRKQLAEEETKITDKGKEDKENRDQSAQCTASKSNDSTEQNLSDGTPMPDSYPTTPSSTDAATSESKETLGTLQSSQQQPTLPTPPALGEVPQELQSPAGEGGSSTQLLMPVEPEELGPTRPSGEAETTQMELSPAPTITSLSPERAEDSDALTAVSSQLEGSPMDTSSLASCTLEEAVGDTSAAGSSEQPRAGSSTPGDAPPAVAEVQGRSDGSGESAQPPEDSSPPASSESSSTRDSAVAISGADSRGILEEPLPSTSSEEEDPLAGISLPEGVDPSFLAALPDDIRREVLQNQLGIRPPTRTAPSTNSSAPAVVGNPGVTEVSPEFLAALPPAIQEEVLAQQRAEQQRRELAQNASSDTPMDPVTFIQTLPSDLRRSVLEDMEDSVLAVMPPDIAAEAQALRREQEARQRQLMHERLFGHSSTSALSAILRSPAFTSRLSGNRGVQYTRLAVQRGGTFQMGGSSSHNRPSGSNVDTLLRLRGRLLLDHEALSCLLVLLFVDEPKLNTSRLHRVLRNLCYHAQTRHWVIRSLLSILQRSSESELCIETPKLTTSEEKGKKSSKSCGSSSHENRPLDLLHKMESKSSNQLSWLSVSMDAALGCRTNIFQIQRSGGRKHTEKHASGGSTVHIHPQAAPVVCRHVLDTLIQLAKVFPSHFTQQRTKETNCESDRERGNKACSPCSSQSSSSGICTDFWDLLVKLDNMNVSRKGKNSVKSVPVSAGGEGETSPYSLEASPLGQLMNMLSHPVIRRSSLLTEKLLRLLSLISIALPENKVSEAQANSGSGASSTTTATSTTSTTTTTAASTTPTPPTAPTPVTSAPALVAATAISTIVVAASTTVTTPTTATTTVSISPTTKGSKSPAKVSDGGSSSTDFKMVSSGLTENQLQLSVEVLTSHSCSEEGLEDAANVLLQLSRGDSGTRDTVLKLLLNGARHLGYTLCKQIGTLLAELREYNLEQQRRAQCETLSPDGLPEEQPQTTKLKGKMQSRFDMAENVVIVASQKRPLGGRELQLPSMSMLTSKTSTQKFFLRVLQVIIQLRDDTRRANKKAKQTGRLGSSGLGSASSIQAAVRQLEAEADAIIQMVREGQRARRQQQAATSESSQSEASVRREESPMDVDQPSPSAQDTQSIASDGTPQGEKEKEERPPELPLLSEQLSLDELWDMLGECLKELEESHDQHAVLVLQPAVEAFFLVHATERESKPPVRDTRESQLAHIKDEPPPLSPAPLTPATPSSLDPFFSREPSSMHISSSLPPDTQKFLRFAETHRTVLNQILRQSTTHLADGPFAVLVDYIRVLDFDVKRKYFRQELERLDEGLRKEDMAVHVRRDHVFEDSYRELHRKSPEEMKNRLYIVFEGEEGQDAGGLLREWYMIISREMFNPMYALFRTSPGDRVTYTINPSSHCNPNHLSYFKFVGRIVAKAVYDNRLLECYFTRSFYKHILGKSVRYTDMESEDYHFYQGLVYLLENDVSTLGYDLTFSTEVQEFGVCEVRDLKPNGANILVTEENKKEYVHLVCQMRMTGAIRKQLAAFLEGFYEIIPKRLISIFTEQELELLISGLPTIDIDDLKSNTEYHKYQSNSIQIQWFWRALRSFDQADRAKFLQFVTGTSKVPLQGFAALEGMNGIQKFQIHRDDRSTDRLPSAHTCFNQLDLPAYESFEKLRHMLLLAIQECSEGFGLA
UniProt P41252: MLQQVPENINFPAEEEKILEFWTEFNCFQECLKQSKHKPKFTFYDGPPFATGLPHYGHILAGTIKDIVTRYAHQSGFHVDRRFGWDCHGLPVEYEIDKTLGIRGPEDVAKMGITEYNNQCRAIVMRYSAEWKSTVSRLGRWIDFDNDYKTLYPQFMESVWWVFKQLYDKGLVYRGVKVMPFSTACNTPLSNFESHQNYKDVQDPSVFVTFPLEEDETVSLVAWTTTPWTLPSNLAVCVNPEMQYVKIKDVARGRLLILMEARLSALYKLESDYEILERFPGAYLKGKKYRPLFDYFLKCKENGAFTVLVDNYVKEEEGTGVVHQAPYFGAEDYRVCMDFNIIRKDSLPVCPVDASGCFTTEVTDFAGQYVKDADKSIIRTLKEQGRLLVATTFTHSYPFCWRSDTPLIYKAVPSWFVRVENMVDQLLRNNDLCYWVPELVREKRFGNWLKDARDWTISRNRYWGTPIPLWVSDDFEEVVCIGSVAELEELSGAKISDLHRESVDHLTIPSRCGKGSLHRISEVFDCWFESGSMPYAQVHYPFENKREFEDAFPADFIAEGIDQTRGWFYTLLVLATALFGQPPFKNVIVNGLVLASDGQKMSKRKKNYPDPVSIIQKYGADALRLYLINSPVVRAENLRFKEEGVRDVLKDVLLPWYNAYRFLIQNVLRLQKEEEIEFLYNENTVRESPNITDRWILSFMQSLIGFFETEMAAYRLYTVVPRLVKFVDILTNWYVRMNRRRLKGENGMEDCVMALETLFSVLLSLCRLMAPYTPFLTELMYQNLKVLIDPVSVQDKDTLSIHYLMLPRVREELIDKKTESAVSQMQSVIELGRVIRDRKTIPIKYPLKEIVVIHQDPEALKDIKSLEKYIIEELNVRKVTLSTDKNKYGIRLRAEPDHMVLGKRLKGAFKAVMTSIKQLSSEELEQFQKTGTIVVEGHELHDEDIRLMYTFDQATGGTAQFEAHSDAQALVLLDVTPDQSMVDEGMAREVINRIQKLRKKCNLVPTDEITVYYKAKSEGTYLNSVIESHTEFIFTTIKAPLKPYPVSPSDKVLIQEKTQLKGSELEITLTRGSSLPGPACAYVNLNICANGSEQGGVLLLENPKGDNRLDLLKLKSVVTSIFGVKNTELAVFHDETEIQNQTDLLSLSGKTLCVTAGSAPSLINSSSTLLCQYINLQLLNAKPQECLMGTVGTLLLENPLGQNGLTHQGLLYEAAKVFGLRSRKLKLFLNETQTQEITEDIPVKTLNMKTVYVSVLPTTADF
UniProt Q12906, whole entry, looked up: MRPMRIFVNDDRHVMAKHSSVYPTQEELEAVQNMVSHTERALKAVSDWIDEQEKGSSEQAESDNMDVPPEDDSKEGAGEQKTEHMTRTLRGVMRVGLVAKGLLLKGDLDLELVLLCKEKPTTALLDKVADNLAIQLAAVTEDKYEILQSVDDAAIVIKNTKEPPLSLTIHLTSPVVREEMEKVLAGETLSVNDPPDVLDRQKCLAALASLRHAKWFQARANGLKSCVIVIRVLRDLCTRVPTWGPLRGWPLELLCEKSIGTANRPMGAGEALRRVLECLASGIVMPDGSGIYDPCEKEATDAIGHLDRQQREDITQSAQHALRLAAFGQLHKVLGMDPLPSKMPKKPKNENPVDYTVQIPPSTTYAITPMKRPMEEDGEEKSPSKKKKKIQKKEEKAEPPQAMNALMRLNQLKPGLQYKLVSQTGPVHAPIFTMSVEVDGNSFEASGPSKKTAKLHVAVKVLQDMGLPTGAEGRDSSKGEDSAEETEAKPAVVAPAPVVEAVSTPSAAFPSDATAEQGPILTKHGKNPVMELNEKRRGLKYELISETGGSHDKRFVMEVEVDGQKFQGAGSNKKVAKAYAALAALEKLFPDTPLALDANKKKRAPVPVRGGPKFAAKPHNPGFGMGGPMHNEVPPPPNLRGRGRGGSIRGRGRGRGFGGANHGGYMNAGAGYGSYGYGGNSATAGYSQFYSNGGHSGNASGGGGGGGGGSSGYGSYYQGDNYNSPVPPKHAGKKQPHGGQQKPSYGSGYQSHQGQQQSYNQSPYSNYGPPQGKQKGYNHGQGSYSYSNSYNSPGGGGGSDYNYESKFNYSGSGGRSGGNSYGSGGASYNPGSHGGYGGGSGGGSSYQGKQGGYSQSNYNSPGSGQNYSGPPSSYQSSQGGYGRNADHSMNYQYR

Compound: Cc1cc(ccc1-c1ccccc1)C(=O)N1CCCN(CC1)C(=O)CCl [compound 10]
Experiment: probe-labelled cysteine peptide fold change vs DMSO (competition) (log2 fold change); higher = less target engagement (more negative = stronger competition)
Settings: THP-1, incubation time: 4 h
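Note: competitive profiling in live THP-1 cells: cysteine peptides tagged with an iodoacetamide desthiobiotin (IA-DTB) probe, intensity after compound treatment relative to DMSO-treated cells.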

| Target | probe-labelled cysteine peptide fold change (10 µM) | probe-labelled cysteine peptide fold change (50 µM) |
| --- | --- | --- |
| IL1RAP_Q9NPH3_332_SYVCHAR (UniProt Q9NPH3) | -0.0813 | -0.034 |
| IMPDH1_P20839_215_LPIVNDCDELVAIIAR (UniProt P20839) | 0.0535 | 0.253 |
| IDH3B_O43837_233_LGDGLFLQCCEEVAELYPK (UniProt O43837) | 0.321 | 0.357 |
| IGFBP4_P22692_215_QCHPALDGQR (UniProt P22692) | -0.796 | -0.804 |
| IKZF1_Q13422_394_EASPSNSCQDSTDTESNNEEQR (UniProt Q13422) | -0.188 | 0.211 |
| IGF2R_P11717_1795_TSECDFVFEWETPVVCPDEVR (UniProt P11717) | 0.141 | -0.204 |
| IFI35_P80217_74_IHCPLLAGSALITFDDPK (UniProt P80217) | -0.0276 | -0.193 |
| HUWE1_Q7Z6Z7_3385_ACSPCSSQSSSSGICTDFWDLLVK (UniProt Q7Z6Z7) | 0.283 | -0.127 |
| INPP5D_Q92835_217_LTTLLCK (UniProt Q92835) | 0.165 | -0.134 |
| IMPACT_Q9P2X3_137_KKTEEEDVECEDDLILACQPESSLK (UniProt Q9P2X3) | 0.00493 | -0.493 |
| IFT81_Q8WYA0_557_LREECLQEESR (UniProt Q8WYA0) | 0.204 | 0.191 |
| IMPA1_P29218_125_KIEFGVVYSCVEGK (UniProt P29218) | -0.0937 | 0.346 |
| IDH1_O75874_269_SEGGFIWACK (UniProt O75874) | -0.0182 | -0.166 |
| HUWE1_Q7Z6Z7_3361_ETNCESDRER (UniProt Q7Z6Z7) | -0.165 | -0.258 |
| IDE_P14735_171+178_FAQFFLCPLFDESCK (UniProt P14735) | -0.195 | -0.297 |
| ILKAP_Q9H0C8_135_EEMQDAHVILNDITEECRPPSSLITR (UniProt Q9H0C8) | -0.29 | 0.284 |
| IL6R_P08887_121_AGRPAGTVHLLVDVPPEEPQLSCFR (UniProt P08887) | -0.092 | -0.192 |
| IKBKB_O14920_464_NNSCLSK (UniProt O14920) | -0.345 | -0.953 |
| INPP5D_Q92835_138_NIPLTASSCEAK (UniProt Q92835) | -0.359 | -0.355 |
| ILKAP_Q9H0C8_135_KGEREEMQDAHVILNDITEECRPPSSLITR (UniProt Q9H0C8) | -0.211 | -0.03 |
| IFI16_Q16666_737_LTCFELAPK (UniProt Q16666) | -0.11 | -0.0776 |

| Target | probe-labelled cysteine peptide fold change (10 µM) | probe-labelled cysteine peptide fold change (50 µM) |
| --- | --- | --- |
| ICAM3_P32942_190_DDHGAPFSCR (UniProt P32942) | -0.196 | -0.0129 |
| IMPDH2_P12268_246_QLLCGAAIGTHEDDKYR (UniProt P12268) | -0.388 | -0.865 |
| IGF2R_P11717_84_INICGSVDIVQCGPSSAVCMHDLK (UniProt P11717) | 0.0168 | -0.227 |
| IGFBP7_Q16270_71_GEGEPCGGGGAGR (UniProt Q16270) | -0.495 | -0.954 |
| HYAL3_O43820_356_AAMACSHQR (UniProt O43820) | 0.205 | 0.00605 |
| HUWE1_Q7Z6Z7_349_LSSIIDCTGTASYHGFLPVLVR (UniProt Q7Z6Z7) | -0.208 | 0.0399 |
| IMPA1_P29218_184_LFCIPVHGIR (UniProt P29218) | 0.128 | 0.0433 |
| IMPDH2_P12268_173_DIDFLKEEEHDCFLEEIMTKR (UniProt P12268) | -0.319 | -1.01 |
| IARS_P41252_87_RFGWDCHGLPVEYEIDK (UniProt P41252) | 0.000826 | -0.156 |
| HUWE1_Q7Z6Z7_4211_EYVHLVCQMR (UniProt Q7Z6Z7) | -0.0536 | 0.0673 |
| HUWE1_Q7Z6Z7_29_VCNDEQLLLELQQIK (UniProt Q7Z6Z7) | -0.145 | 0.108 |
| IL1RAP_Q9NPH3_438_LCIFDRDSLPGGIVTDETLSFIQK (UniProt Q9NPH3) | -0.185 | 0.0397 |
| IGFBP4_P22692_174_EDARPVPQGSCQSELHR (UniProt P22692) | -0.291 | 0.00294 |
| IGF2R_P11717_288_EEAGKLDFCDGHSPAVTITFVCPSER (UniProt P11717) | -0.0322 | -0.0881 |
| IFI16_Q16666_679_INQLCSQTK (UniProt Q16666) | -0.116 | 0.16 |
| IARS2_Q9NSE4_819_SCQTALVEILDVIVR (UniProt Q9NSE4) | 0.131 | -0.123 |
| IDH3A_P50213_222_EVAESCK (UniProt P50213) | 0.0481 | 0.136 |
| INF2_Q27J81_1029_CPASEPGLDATTASESR (UniProt Q27J81) | -0.335 | -0.487 |
| IFT122_Q9HBG6_784_AIEICGDHGWVDMLIDIAR (UniProt Q9HBG6) | 0.0852 | -0.234 |
| IGF2R_P11717_475_EDLLCGATDGK (UniProt P11717) | -0.157 | 0.187 |
| INF2_Q27J81_971_KGPGKQEEVCVIDALLADIRK (UniProt Q27J81) | -0.309 | -0.717 |

Reformatted with bars between the fields: entries from further up
Target | probe-labelled cysteine peptide fold change (10 µM) | probe-labelled cysteine peptide fold change (50 µM)
IARS_P41252_87_RFGWDCHGLPVEYEIDK (UniProt P41252) | 0.000826 | -0.156
HUWE1_Q7Z6Z7_4211_EYVHLVCQMR (UniProt Q7Z6Z7) | -0.0536 | 0.0673
HUWE1_Q7Z6Z7_29_VCNDEQLLLELQQIK (UniProt Q7Z6Z7) | -0.145 | 0.108
IL1RAP_Q9NPH3_438_LCIFDRDSLPGGIVTDETLSFIQK (UniProt Q9NPH3) | -0.185 | 0.0397
IGFBP4_P22692_174_EDARPVPQGSCQSELHR (UniProt P22692) | -0.291 | 0.00294
IGF2R_P11717_288_EEAGKLDFCDGHSPAVTITFVCPSER (UniProt P11717) | -0.0322 | -0.0881
IFI16_Q16666_679_INQLCSQTK (UniProt Q16666) | -0.116 | 0.16

Continuation:

| Target | probe-labelled cysteine peptide fold change (10 µM) | probe-labelled cysteine peptide fold change (50 µM) |
| --- | --- | --- |
| HUWE1_Q7Z6Z7_2666_VLDAESMHDCVSVVK (UniProt Q7Z6Z7) | -0.122 | 0.0675 |
| HUWE1_Q7Z6Z7_3635_HLGYTLCK (UniProt Q7Z6Z7) | -0.53 | 0.14 |
| ILKAP_Q9H0C8_135_GEREEMQDAHVILNDITEECRPPSSLITR (UniProt Q9H0C8) | -0.223 | 0.091 |
| IMPA2_O14732_107_CVLTHSPTWIIDPIDGTCNFVHR (UniProt O14732) | 0.149 | -0.425 |
| IGF2R_P11717_572_GNIQLSYSDGDDCGHGK (UniProt P11717) | -0.14 | -0.0311 |
| IGF2R_P11717_149_TLGTPEFVTATECVHYFEWR (UniProt P11717) | 0.00273 | -0.0538 |
| ILK_Q13418_422_VALEGLRPTIPPGISPHVCK (UniProt Q13418) | -0.0704 | -0.187 |
| HYAL3_O43820_361_CHGHGR (UniProt O43820) | 0.052 | -0.0062 |
| IGF2BP2_Q9Y6M1_255_KENSGAAEKPVTIHATPEGTSEACR (UniProt Q9Y6M1) | -0.0974 | -0.299 |
| ING2_Q9H160_124_QMELHSQCFQDPAESER (UniProt Q9H160) | -0.00555 | 0.098 |
| IARS_P41252_400_LLVATTFTHSYPFCWR (UniProt P41252) | 0.0125 | 0.177 |
| IMPAD1_Q9NX62_302_KWDICAGNAILK (UniProt Q9NX62) | -0.223 | 0.271 |
| IKBKG_Q9Y6K9_95_EFLMCK (UniProt Q9Y6K9) | -0.0371 | -0.0967 |
| INPP5D_Q92835_1088_SFTCSSSAEGR (UniProt Q92835) | -0.37 | -0.603 |
| IGF2R_P11717_228_ACPPGTAACLVR (UniProt P11717) | -0.0106 | 0.104 |
| IGF2R_P11717_1975_GCDVTFEWK (UniProt P11717) | -0.034 | -0.0919 |
| IDH2_P48735_154_NILGGTVFREPIICK (UniProt P48735) | -0.0771 | 0.00956 |
| HUWE1_Q7Z6Z7_3658_RAQCETLSPDGLPEEQPQTTK (UniProt Q7Z6Z7) | -0.387 | -0.635 |
| ILF3_Q12906_116_GDLDLELVLLCK (UniProt Q12906) | 0.0258 | 0.162 |
| IARS_P41252_526_ISEVFDCWFESGSMPYAQVHYPFENK (UniProt P41252) | 0.25 | 0.642 |
| IDE_P14735_178_FAQFFLCPLFDESCK (UniProt P14735) | 0.0901 | 0.199 |

| Target | probe-labelled cysteine peptide fold change (10 µM) | probe-labelled cysteine peptide fold change (50 µM) |
| --- | --- | --- |
| IGSF8_Q969P0_127_LQAQDAGIYECHTPSTDTR (UniProt Q969P0) | -0.113 | -0.255 |
| IMPDH2_P12268_173_EEEHDCFLEEIMTK (UniProt P12268) | -0.0951 | 0.357 |
| IDH3A_P50213_127_TFDLYANVRPCVSIEGYK (UniProt P50213) | 0.145 | 0.0551 |
| IFT74_Q96LB3_400_AQIEANIVALLEHCSR (UniProt Q96LB3) | 0.266 | 0.147 |
| INF2_Q27J81_758_QLPIFCQLILR (UniProt Q27J81) | 0.0614 | -0.00437 |
| IL17RA_Q96F46-2_303_HSATVSCPEMPDTPEPIPGPGSEK (UniProt Q96F46) | -0.0577 | -0.0968 |
| ILF3_Q12906_203_CLAALASLR (UniProt Q12906) | -0.0927 | 0.189 |
| INO80_Q9ULG1_1001+1011_CLLTELPSFLCVASPR (UniProt Q9ULG1) | -0.186 | -0.183 |
| INPP5D_Q92835_1050_KEPPPCPEPGILSPSIVLTK (UniProt Q92835) | -0.314 | -0.212 |
| IFT22_Q9H7X7_12_ILFVGPCESGK (UniProt Q9H7X7) | -0.195 | -0.174 |
| IGHMBP2_P38935_395_CILAGDHK (UniProt P38935) | -0.0448 | 0.0895 |
| IGF2R_P11717_134_VQSSIAFLCGK (UniProt P11717) | -0.186 | -0.697 |
| IARS2_Q9NSE4_155_IHFVPGWDCHGLPIEIK (UniProt Q9NSE4) | 0.0627 | 0.0734 |
| IARS2_Q9NSE4_819_RSCQTALVEILDVIVR (UniProt Q9NSE4) | -0.0391 | 0.0402 |
| IL17RA_Q96F46_469_CDHGKPVGDLFTAAMNMILPDFK (UniProt Q96F46) | 0.169 | -0.0355 |
| IGF2BP2_Q9Y6M1_255_ENSGAAEKPVTIHATPEGTSEACR (UniProt Q9Y6M1) | 0.0817 | -0.335 |
| HUWE1_Q7Z6Z7_4099_VTYTINPSSHCNPNHLSYFK (UniProt Q7Z6Z7) | -0.171 | 0.113 |
| IGF2R_P11717_814_YYINVCRPLNPVPGCNR (UniProt P11717) | -0.0356 | -0.0246 |
